Patent US20250195521A1 (Revolution Medicines, Inc., priority 2020, published 2025)
The match of structure and compound is tentative.

Sequences of proteins named here, by UniProt entry; tags and fusion partners are left off. A change or cut given only in a name is not applied to a line headed by its entry. A line that says so, or that is headed by a name, gives the form on record, which may keep a tag or linker. Residues count along the entry.
UniProt P01116, 1-169 isoform 2 G12C limits assumed: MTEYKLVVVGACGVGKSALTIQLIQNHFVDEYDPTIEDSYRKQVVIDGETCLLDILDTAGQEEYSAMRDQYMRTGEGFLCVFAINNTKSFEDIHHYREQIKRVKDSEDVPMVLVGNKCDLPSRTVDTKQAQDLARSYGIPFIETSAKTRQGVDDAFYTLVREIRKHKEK
UniProt P01116, 1-164 with tags or gaps G12C limits assumed: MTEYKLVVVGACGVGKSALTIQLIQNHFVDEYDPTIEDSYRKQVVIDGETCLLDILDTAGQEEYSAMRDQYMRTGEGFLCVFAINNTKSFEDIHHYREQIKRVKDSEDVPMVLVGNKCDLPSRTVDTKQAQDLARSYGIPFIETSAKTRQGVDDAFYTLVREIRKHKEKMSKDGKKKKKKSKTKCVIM
UniProt P01116, 1-164 with tags or gaps G12D limits assumed: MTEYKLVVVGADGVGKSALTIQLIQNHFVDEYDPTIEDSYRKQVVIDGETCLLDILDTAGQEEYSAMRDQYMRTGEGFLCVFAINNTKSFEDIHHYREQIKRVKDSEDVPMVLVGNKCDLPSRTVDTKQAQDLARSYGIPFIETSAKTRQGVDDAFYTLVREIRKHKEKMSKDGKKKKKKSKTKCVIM
UniProt P01116, 1-164 with tags or gaps G12S limits assumed: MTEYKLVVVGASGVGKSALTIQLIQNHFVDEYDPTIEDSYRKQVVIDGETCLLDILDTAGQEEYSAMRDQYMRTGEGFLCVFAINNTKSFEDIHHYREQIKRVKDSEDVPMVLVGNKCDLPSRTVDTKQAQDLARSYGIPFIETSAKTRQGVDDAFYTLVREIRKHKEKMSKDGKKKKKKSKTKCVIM
UniProt P01116, 1-164 with tags or gaps G12V limits assumed: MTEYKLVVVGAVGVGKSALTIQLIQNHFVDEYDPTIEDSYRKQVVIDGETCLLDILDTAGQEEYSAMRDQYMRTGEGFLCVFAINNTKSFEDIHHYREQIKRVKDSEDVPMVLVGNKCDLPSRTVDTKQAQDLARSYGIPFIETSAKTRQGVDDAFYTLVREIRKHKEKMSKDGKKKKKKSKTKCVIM
UniProt P01116, 1-164 with tags or gaps G13C limits assumed: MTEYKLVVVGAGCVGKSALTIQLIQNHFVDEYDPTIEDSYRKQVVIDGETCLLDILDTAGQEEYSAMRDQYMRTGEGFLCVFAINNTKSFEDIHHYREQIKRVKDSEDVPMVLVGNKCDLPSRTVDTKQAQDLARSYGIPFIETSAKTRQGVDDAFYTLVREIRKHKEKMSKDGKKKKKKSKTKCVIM
UniProt P01116, 1-164 with tags or gaps Q61H limits assumed: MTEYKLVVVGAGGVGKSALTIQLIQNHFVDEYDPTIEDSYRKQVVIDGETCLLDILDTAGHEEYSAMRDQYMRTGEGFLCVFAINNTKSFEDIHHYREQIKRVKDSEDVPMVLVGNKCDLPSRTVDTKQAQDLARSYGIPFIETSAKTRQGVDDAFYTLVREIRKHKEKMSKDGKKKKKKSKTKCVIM
UniProt P01116, 1-164 with tags or gaps limits assumed: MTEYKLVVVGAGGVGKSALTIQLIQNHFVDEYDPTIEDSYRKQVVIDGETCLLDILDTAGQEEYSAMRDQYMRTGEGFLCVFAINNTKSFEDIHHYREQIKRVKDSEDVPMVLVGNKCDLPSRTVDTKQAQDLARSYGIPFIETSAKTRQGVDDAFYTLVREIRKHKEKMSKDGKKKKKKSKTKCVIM
UniProt P62937, whole entry: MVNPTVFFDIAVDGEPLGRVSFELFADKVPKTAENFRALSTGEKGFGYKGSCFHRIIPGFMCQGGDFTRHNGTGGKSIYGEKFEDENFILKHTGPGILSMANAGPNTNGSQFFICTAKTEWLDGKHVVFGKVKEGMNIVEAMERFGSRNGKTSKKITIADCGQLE

Columns and labels:
[1] = molecular target: KRAS G12D (Homo sapiens (Human), UniProt P01116+P62937, G12D); experiment: Ras-Raf disruption/FRET/MOA assay (BRAF RBD, Cyclophilin A); type: biochemical; settings: read-out: KRAS G12D FRET IC50
[2] = molecular target: KRAS G12C (Homo sapiens (Human), UniProt P01116+P62937, G12C); experiment: as above; type: biochemical; settings: read-out: KRAS G12C FRET IC50
[3] = molecular target: K-Ras G12C(GMP-PNP) binding to BRAF RBD (Homo sapiens (Human), UniProt P01116+P62937, G12C); experiment: Disruption of BRAF RBD interaction with K-Ras (FRET / MOA assay), K-Ras G12C; type: biochemical; settings: read-out: KRAS G12C FRET IC50
[4] = system: Capan-1 cells (K-Ras G12V); experiment: CellTiter-Glo cell viability, Capan-1; type: cell-based, human; settings: read-out: Capan-1 Cell Viability IC50, 5-day treatment
[5] = molecular target: KRAS WT binding to BRAF RBD (Homo sapiens (Human), UniProt P01116+P62937); experiment: Ras-Raf disruption/FRET/MOA assay, KRAS WT; type: biochemical; settings: read-out: KRAS WT FRET IC50
[6] = molecular target: KRAS G12S (Homo sapiens (Human), UniProt P01116+P62937, G12S); experiment: Ras-Raf disruption/FRET/MOA assay (BRAF RBD, Cyclophilin A); type: biochemical; settings: read-out: KRAS G12S FRET IC50
[7] = molecular target: KRAS Q61H (Homo sapiens (Human), UniProt P01116+P62937, Q61H); experiment: as above; type: biochemical; settings: read-out: KRAS Q61H FRET IC50
[8] = molecular target: KRAS G12V (Homo sapiens (Human), UniProt P01116+P62937, G12V); experiment: as above; type: biochemical; settings: read-out: KRAS G12V FRET IC50
[9] = molecular target: KRAS G13C (Homo sapiens (Human), UniProt P01116+P62937, G13C); experiment: as above; type: biochemical; settings: read-out: KRAS G13C FRET IC50
[10] = system: NCI-H358 cells (K-Ras G12C); experiment: CellTiter-Glo cell viability, NCI-H358; type: cell-based, human; settings: read-out: H358 Cell Viability IC50; K-Ras G12C, 5-day treatment
[11] = system: NCI-H358 (K-Ras G12C); experiment: CellTiter-Glo cell viability assay, NCI-H358; type: cell-based, human; settings: read-out: H358 Cell Viability assay data (K-Ras G12C, IC50); 5-day treatment
[12] = system: K-Ras G12C (NCI-H358 cells); experiment: Potency assay: pERK in NCI-H358 cells; type: cell-based, human; settings: read-out: pERK EC50 (H358 KRAS G12C), 4 hours
[13] = molecular target: KRAS G12S binding to BRAF RBD (Homo sapiens (Human), UniProt P01116+P62937, G12S); experiment: Ras-Raf disruption/FRET/MOA assay, KRAS G12S; type: biochemical; settings: read-out: KRAS G12S FRET IC50

Row | IC50 [3] | Compound | IC50 [1] | IC50 [2] | IC50 [6] | IC50 [8] | IC50 [9] | IC50 [11] | other results
1 |  | CCOC(=O)N1CC[C@H](C(=O)N(C)[C@H](C(=O)N[C@H]2Cc3cc(O)cc(c3)-c3ccc4c(c3)c(c(-c3cccnc3[C@H](C)OC)n4CC)CC(C)(C)COC(=O)[C@@H]3CCCN(N3)C2=O)C(C)C)C1 | 100 to 1000 nM | 10 to 100 nM |  |  |  |  | 
2 | 100 to 1000 nM | C=CC(=O)N1CC[C@H](C(=O)N(C)[C@H](C(=O)N[C@H]2Cc3cc(N)cc(c3)-c3ccc4c(c3)c(c(-c3ccccc3COC)n4CC)CC(C)(C)COC(=O)[C@@H]3CCCN(N3)C2=O)C(C)C)C1 [A042] |  |  |  |  |  |  | 
3 |  | CCn1c(-c2cccnc2[C@H](C)OC)c2c3cc(ccc31)-c1csc(n1)C[C@H](NC(=O)[C@H](C(C)C)N(C)C(=O)[C@H]1CCN(C(=O)C#CCN3CCOCC3)C1)C(=O)N1CCC[C@H](N1)C(=O)OCC(C)(C)C2 |  |  |  |  |  |  | IC50 [4]: > 10000 nM
4 |  | CCn1c(-c2cccnc2[C@H](C)OC)c2c3cc(ccc31)-c1csc(n1)C[C@H](NC(=O)[C@H](C(C)C)N(C)C(=O)N1CCC3(CC1)CN(C)CCO3)C(=O)N1CCC[C@H](N1)C(=O)OCC(C)(C)C2 | 1000 to 10000 nM | 100 to 1000 nM | 100 to 1000 nM | 100 to 1000 nM | 100 to 1000 nM | 10 to 100 nM | IC50 [5]: 10 to 100 nM; IC50 [7]: 100 to 1000 nM; IC50 [10]: 10 to 100 nM; IC50 [4]: 10 to 100 nM; EC50 [12]: < 5000 nM; IC50 [13]: 10 to 100 nM
5 |  | CCn1c(-c2cccnc2[C@H](C)OC)c2c3cc(ccc31)-c1csc(n1)C[C@H](NC(=O)[C@H](C(C)C)N(C)C(=O)N1CCO[C@H](C)C1)C(=O)N1CCC[C@H](N1)C(=O)OCC(C)(C)C2 | 100 to 1000 nM | 10 to 100 nM | 100 to 1000 nM | 100 to 1000 nM | 100 to 1000 nM | 10 to 100 nM | IC50 [7]: 10 to 100 nM; IC50 [10]: < 10 nM; IC50 [4]: 10 to 100 nM; EC50 [12]: < 5000 nM
6 | 10 to 100 nM | C=CC(=O)N1CC[C@H](C(=O)N(C)[C@H](C(=O)N[C@H]2Cc3cc(O)cc(c3)-c3ccc4c(c3)c(c(-c3ccccc3COC)n4CC)CC(C)(C)COC(=O)[C@@H]3CCCN(N3)C2=O)C2CCCC2)C1 |  |  |  |  |  |  | 
7 | 10 to 100 nM | C=CC(=O)N1CC[C@H](C(=O)N(C)[C@H](C(=O)N[C@H]2Cc3cc(O)cc(c3)-c3ccc4c(c3)c(c(-c3cccnc3COC)n4CC#N)CC(C)(C)COC(=O)[C@@H]3CCCN(N3)C2=O)C(C)C)C1 |  |  |  |  |  |  | 
8 |  | CCn1c(-c2cnccc2COC)c2c3cc(ccc31)-c1cc(O)cc(c1)C[C@H](NC(=O)[C@H](C(C)C)N(C)C(=O)c1ncco1)C(=O)N1CCC[C@H](N1)C(=O)OCC(C)(C)C2 | 1000 to 10000 nM | 100 to 1000 nM | 100 to 1000 nM | 100 to 1000 nM | 1000 to 10000 nM | < 10 nM | IC50 [7]: 10 to 100 nM; IC50 [10]: 1000 to 10000 nM; EC50 [12]: < 5000 nM
9 |  | CCn1c(-c2cccnc2[C@H](C)OC)c2c3cc(ccc31)-c1csc(n1)C[C@H](NC(=O)[C@H](C(C)C)N(C)C(=O)[C@H]1OCC[C@H]1c1ccccc1)C(=O)N1CCC[C@H](N1)C(=O)OCC(C)(C)C2 | 1000 to 10000 nM | 1000 to 10000 nM | 1000 to 10000 nM | 1000 to 10000 nM | 1000 to 10000 nM | > 10000 nM | 
10 | 100 to 1000 nM | C=CC(=O)N1CCC(F)(C(=O)N(C)[C@H](C(=O)N[C@H]2Cc3cc(O)cc(c3)-c3ccc4c(c3)c(c(-c3ccccc3CCOC)n4CC)CC(C)(C)COC(=O)[C@@H]3CCCN(N3)C2=O)C(C)C)CC1 |  |  |  |  |  |  | 

Row | Compound | IC50 [3] | IC50 [1] | IC50 [2] | IC50 [6] | IC50 [8] | IC50 [9] | IC50 [11] | other results
11 | C=CC(=O)N1CC[C@H](C(=O)N(C)[C@H](C(=O)N[C@H]2Cc3cc(OC(=O)N(C)CC(=O)O)cc(c3)-c3ccc4c(c3)c(c(-c3ccccc3CCOC)n4CC)CC(C)(C)COC(=O)[C@@H]3CCCN(N3)C2=O)C(C)C)C1 [Compound A78] | 100 to 1000 nM |  |  |  |  |  |  | 
